This experiment addresses Peroxisome proliferative activated receptor, gamma (PPARG) (rat (endogenous in H9c2)) (UniProt O88275). Nature of the experiment: co-IP; H9c2 cell lysates incubated with 2 ug PPARG antibody overnight at 4 °C, protein A/G plus agarose beads 1 h at 4 °C, washed 4 times with lysis buffer, Western blot; cells with or without Miat overexpression. (In general: In western blotting, separated proteins are transferred to a membrane and probed.)

The chains behind the UniProt entries cited, without tags or fusion partners.
UniProt O88275: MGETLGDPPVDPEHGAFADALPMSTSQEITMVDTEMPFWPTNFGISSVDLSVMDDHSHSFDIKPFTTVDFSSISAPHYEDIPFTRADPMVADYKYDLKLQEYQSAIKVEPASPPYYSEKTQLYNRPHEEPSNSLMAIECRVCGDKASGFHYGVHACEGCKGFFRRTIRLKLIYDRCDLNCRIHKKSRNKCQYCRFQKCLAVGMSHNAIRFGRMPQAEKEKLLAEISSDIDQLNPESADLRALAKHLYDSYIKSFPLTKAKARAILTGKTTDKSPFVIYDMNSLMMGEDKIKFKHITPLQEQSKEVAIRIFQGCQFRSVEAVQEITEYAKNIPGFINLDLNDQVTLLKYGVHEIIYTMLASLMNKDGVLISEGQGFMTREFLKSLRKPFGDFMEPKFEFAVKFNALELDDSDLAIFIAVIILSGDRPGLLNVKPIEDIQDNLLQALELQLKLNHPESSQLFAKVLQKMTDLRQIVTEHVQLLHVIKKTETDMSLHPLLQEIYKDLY

No constants are given. Whether binding was seen depends on the method and setting. In cells and extracts the contact can be indirect. Some binding calls cover weakened binding; strength is not graded here.

B1: Retinoid X receptor alpha (RXRA) (protein, UniProt Q05343 1-467)
chain: MDTKHFLPLDFSTQVNSSSLSSPTGRGSMAAPSLHPSLGPGLGSPLGSPGQLHSPISTLSSPINGMGPPFSVISSPMGPHSMSVPTTPTLGFETGSPQLNSPMNPVSSSEDIKPPLGLNGVLKVPAHPSGNMSSFTKHICAICGDRSSGKHYGVYSCEGCKGFFKRTVRKDLTYTCRDNKDCLIDKRQRNRCQYCRYQKCLAMGMKREAVQEERQRGKDRNENEVESTSSANEDMPVEKILEAELAVEPKTETYVEANMGLNPSSPNDPVTNICQAADKQLFTLVEWAKRIPHFSELPLDDQVILLRAGWNELLIASFSHRSIAVKDGILLATGLHVHRNSAHSAGVGAIFDRVLTELVSKMRDMQMDKTELGCLRAIVLFNPDSKGLSNPAEVEALREKVYASLEAYCKHKYPEQPGRFAKLLLRLPALRSIGLKCLEHLFFFKLIGDTPIDTFLMEMLEAPHQTT
B1: the binding result is reported as “binds”.
